From publication doi:10.1101/2023.01.19.524830

By UniProt entry, the sequences of proteins in these tests, tags left out. Where a name states a change or a piece, a line headed by the entry shows the natural chain unless it says otherwise.
UniProt Q5VMP0: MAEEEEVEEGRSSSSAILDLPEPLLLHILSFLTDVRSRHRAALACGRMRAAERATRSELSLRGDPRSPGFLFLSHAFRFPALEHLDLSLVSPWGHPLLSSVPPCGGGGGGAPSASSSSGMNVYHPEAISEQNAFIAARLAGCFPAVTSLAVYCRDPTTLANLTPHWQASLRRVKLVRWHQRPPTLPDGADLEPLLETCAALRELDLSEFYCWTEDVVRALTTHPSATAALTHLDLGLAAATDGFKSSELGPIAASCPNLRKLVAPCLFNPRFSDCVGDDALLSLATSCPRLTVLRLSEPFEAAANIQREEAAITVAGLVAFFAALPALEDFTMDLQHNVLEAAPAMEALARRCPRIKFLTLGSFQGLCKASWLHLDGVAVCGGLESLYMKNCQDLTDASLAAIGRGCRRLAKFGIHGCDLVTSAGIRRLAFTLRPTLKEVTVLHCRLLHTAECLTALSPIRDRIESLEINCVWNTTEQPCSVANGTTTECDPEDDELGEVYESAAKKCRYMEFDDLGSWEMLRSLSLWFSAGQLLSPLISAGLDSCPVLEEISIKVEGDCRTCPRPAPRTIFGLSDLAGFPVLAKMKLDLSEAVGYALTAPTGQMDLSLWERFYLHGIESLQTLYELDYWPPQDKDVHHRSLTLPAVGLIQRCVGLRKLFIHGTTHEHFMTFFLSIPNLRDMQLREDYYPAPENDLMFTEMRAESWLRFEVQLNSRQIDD
UniProt Q39255: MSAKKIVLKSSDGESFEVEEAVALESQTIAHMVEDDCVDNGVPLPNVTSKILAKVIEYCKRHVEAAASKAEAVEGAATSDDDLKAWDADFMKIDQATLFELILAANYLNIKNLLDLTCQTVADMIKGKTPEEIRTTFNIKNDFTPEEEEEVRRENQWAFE

Biological target: 6xHis-2xMsb-D3^D720K (full-length rice D3 with D720K) (O. sativa (rice)) (UniProt Q5VMP0)
Test: co-purification

“ASK1 (A. thaliana), untagged (from UniProt Q39255 1-160)” was tested, and the binding was “binds”.

Results are given in words; binding and its absence hold for the method and conditions named. In cells and extracts the contact can be indirect. A result given as binding can be weak or reduced; the word gives no strength.
